Article PMC12501224
These are yes or no findings as the source states them, for the method shown. In cells and extracts the contact can be indirect. Some results given as binding are weak or reduced against the parent protein; the word gives no strength.

Chains of the proteins cited; added tags and fusions are not shown.
UniProt P28741: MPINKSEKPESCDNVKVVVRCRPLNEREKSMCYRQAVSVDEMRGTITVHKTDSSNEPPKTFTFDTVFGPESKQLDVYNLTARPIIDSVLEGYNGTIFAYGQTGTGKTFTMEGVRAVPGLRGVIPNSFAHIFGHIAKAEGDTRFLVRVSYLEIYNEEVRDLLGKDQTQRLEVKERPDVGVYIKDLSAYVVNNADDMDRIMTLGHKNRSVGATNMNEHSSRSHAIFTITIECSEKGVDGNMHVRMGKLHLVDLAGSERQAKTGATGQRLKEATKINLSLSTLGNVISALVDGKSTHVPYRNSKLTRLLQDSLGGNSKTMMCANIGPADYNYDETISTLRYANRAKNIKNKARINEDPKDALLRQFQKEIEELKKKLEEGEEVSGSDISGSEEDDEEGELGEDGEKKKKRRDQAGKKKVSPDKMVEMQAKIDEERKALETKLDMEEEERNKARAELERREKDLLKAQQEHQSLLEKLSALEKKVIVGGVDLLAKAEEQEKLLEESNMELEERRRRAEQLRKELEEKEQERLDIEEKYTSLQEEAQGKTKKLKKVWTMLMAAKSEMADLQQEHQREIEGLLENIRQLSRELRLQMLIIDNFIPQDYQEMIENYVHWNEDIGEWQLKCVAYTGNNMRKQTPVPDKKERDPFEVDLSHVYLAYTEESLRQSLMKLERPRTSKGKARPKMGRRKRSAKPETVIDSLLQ

Molecular target: T1, Eftud2 (elongation factor Tu GTP binding domain containing 2) (mouse (endogenous in SmoM2^Atoh1 mouse tumors)) (UniProt O08810)
T1 sequence: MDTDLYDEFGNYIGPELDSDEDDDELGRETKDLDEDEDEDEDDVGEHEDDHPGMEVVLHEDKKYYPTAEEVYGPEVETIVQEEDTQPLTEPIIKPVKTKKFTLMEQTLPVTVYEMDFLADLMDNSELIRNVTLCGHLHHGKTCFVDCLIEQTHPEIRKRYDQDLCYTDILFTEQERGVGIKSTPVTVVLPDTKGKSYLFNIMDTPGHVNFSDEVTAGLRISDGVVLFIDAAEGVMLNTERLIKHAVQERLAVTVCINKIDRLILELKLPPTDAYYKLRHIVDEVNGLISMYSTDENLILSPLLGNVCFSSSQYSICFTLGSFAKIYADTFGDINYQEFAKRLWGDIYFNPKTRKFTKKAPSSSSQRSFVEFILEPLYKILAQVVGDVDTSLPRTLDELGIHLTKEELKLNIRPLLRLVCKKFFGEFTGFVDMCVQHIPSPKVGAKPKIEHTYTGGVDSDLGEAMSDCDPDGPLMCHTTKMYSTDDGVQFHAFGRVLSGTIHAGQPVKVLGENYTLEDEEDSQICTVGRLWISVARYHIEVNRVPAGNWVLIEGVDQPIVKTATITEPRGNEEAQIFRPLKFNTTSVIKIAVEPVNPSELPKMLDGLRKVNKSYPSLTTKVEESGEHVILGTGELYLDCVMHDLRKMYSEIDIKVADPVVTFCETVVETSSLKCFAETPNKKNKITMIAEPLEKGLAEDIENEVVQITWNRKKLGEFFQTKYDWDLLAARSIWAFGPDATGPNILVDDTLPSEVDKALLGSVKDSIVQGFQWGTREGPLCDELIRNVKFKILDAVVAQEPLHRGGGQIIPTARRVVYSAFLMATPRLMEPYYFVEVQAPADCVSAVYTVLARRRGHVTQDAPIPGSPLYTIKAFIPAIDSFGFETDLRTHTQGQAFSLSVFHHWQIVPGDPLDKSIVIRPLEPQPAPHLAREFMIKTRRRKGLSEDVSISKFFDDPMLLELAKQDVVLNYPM
Experiment: co-IP; lysate of SmoM2^Atoh1 mouse tumors (50 mM Tris pH 7.5, 150 mM NaCl, 10 mM MgCl2, 1% Triton X-100, 10% glycerol, 1 mM EDTA); primary antibody (1 ug/ml lysate) with protein A/G magnetic agarose beads overnight; 3 washes; immunoblot

For “Kif3a (kinesin family member 3A) (from UniProt P28741 1-701)”, which binding is on record?
Its binding is “binds”.
